# According to the supplement of paper PMC4604168 (melanoma cell lines):
# Some of the results follow. Repeats are few or missing, and single values can be far off.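 The apoptosis fraction was the count of cleaved-PARP antibody-stained nuclei relative to all DNA-stained nuclei, imaged in 1,536-well plates. Screening doses were set so most cells survived, and baseline and induced cleaved-PARP levels vary greatly across cell lines.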
# Assays:
# Assay in all cases: cleaved PARP positive nuclei fraction relative to DMSO control; melanoma cells; higher = more apoptosis
# Conditions in all cases: library dose: low library concentration; 72 h
# COLO792 = tested on: COLO792
# COLO800 = tested on: COLO800
# COLO829 = tested on: COLO829
# G361 = tested on: G361
# IPC-298 = tested on: IPC-298
# IST-MEL1 = tested on: IST-MEL1
# LB2518-MEL = tested on: LB2518-MEL
# LOXIMVI = tested on: LOXIMVI
SMILES,cleaved PARP positive nuclei fraction (COLO792) [%],cleaved PARP positive nuclei fraction (COLO800) [%],cleaved PARP positive nuclei fraction (COLO829) [%],cleaved PARP positive nuclei fraction (G361) [%],cleaved PARP positive nuclei fraction (IPC-298) [%],cleaved PARP positive nuclei fraction (IST-MEL1) [%],cleaved PARP positive nuclei fraction (LB2518-MEL) [%],cleaved PARP positive nuclei fraction (LOXIMVI) [%]
"CNC(=O)c1cc(Oc2ccc(NC(=O)Nc3ccc(Cl)c(C(F)(F)F)c3)cc2)ccn1 [sorafenib] + Cc1cc(SCc2sc(-c3ccc(C(F)(F)F)c(F)c3)nc2C)ccc1OCC(=O)O [GW0742] (first compound 0.4 µM, partner dose 2 µM)",134,205,52.1,25.9,104,86.6,62.5,82.2
"C[C@]12O[C@H](C[C@]1(O)CO)n1c3ccccc3c3c4c(c5c6ccccc6n2c5c31)CNC4=O [Lestaurtinib] + COC(=O)c1sccc1S(=O)(=O)Nc1ccc(Nc2ccccc2)cc1OC [GSK0660] (first compound 0.004 µM, partner dose 1 µM)",152,66,17.9,88.9,99.5,56.6,70.9,122
"CCCS(=O)(=O)Nc1ccc(F)c(C(=O)c2c[nH]c3ncc(Cl)cc23)c1F + Cc1cc(SCc2sc(-c3ccc(C(F)(F)F)c(F)c3)nc2C)ccc1OCC(=O)O [GW0742] (first compound 0.08 µM, partner dose 2 µM)",49.9,265,93.4,102,102,151,119,70.9
"Cn1cc(C2=C(c3cn(C4CCN(Cc5ccccn5)CC4)c4ccccc34)C(=O)NC2=O)c2ccccc21 [Enzastaurin] + C/C(O)=C(\C#N)C(=O)Nc1cc(Br)ccc1Br [LFM-A13] (first compound 0.8 µM, partner dose 2 µM)",166,32.6,116,44.3,64.1,164,75.6,71
"Cn1cc(C2=C(c3cn(C4CCN(Cc5ccccn5)CC4)c4ccccc34)C(=O)NC2=O)c2ccccc21 [Enzastaurin] + COc1ccc(-c2ccc3c(N4CCOCC4)nc(N4C[C@@H](C)O[C@@H](C)C4)nc3n2)cc1CO [KU0063794] (first compound 0.8 µM, partner dose 0.02 µM)",113,206,56.2,66.8,45.3,202,162,108
"N.N.[Cl][Pt][Cl] [cisplatin] + CCCCCCCCCCCC1=C(O)C(=O)C=C(O)C1=O [Embelin] (first compound 1.6 µM, partner dose 1.2 µM)",107,58.6,113,100,86.9,163,72,67.2
"COc1cc([C@@H]2c3cc4c(cc3[C@@H](O[C@@H]3O[C@@H]5CO[C@@H](C)O[C@H]5[C@H](O)[C@H]3O)[C@H]3COC(=O)[C@H]23)OCO4)cc(OC)c1O [etoposide] + Cc1cc(SCc2sc(-c3ccc(C(F)(F)F)c(F)c3)nc2C)ccc1OCC(=O)O [GW0742] (first compound 0.02 µM, partner dose 2 µM)",100,118,141,82.9,90.5,21.2,68.1,88.8
"Cn1cnc2c(F)c(Nc3ccc(Br)cc3Cl)c(C(=O)NOCCO)cc21 [selumetinib] + O=C(Oc1ccc([N+](=O)[O-])cc1)N1CCC(C(O)(c2ccc3c(c2)OCO3)c2ccc3c(c2)OCO3)CC1 [JZL184] (first compound 0.015 µM, partner dose 1 µM)",63.1,174,117,98.1,131,176,199,258
"C[C@]12O[C@H](C[C@]1(O)CO)n1c3ccccc3c3c4c(c5c6ccccc6n2c5c31)CNC4=O [Lestaurtinib] + C/C(O)=C(\C#N)C(=O)Nc1cc(Br)ccc1Br [LFM-A13] (first compound 0.004 µM, partner dose 2 µM)",68.8,87.8,144,50.2,144,137,74.2,21.9
"CC(C)C[C@H](NC(=O)[C@H](Cc1ccccc1)NC(=O)c1cnccn1)B(O)O [Bortezomib] + O=C(Oc1ccc([N+](=O)[O-])cc1)N1CCC(C(O)(c2ccc3c(c2)OCO3)c2ccc3c(c2)OCO3)CC1 [JZL184] (first compound 0.001 µM, partner dose 1 µM)",73,35.4,186,4300,339,125,557,214
"C[C@@H](Oc1cc(-c2cnn(C3CCNCC3)c2)cnc1N)c1c(Cl)ccc(F)c1Cl [Crizotinib] + O=C(Oc1ccc([N+](=O)[O-])cc1)N1CCC(C(O)(c2ccc3c(c2)OCO3)c2ccc3c(c2)OCO3)CC1 [JZL184] (first compound 0.2 µM, partner dose 1 µM)",61.6,39.3,135,107,37.6,91.3,132,42.6
"C[C@]12O[C@H](C[C@]1(O)CO)n1c3ccccc3c3c4c(c5c6ccccc6n2c5c31)CNC4=O [Lestaurtinib] + O=C(O)C(=O)Nc1sc2c(c1C(=O)O)CCNC2 [TCS401] (first compound 0.004 µM, partner dose 1.66667 µM)",67.2,104,82.3,137,65.6,35.9,125,157
"Cn1cc(C2=C(c3cn(C4CCN(Cc5ccccn5)CC4)c4ccccc34)C(=O)NC2=O)c2ccccc21 [Enzastaurin] + O=C(Oc1ccc([N+](=O)[O-])cc1)N1CCC(C(O)(c2ccc3c(c2)OCO3)c2ccc3c(c2)OCO3)CC1 [JZL184] (first compound 0.8 µM, partner dose 1 µM)",154,66.2,84.4,157,91.2,66.2,43,39.6
"CC(=O)c1c(C)c2cnc(Nc3ccc(N4CCNCC4)cn3)nc2n(C2CCCC2)c1=O [palbociclib] + C/C(O)=C(\C#N)C(=O)Nc1cc(Br)ccc1Br [LFM-A13] (first compound 0.04 µM, partner dose 2 µM)",186,71.2,77.6,76.6,171,105,77.5,45.7
"C[C@]12O[C@H](C[C@]1(O)CO)n1c3ccccc3c3c4c(c5c6ccccc6n2c5c31)CNC4=O [Lestaurtinib] + c1cc(-c2cnn3cc(-c4ccc(OCCN5CCCCC5)cc4)cnc23)ccn1 [Dorsomorphin] (first compound 0.004 µM, partner dose 0.4 µM)",163,143,106,121,132,42.4,138,73.9
"C[C@]12O[C@H](C[C@]1(O)CO)n1c3ccccc3c3c4c(c5c6ccccc6n2c5c31)CNC4=O [Lestaurtinib] + O=C(Nc1ccccc1)c1cc([N+](=O)[O-])ccc1Cl [GW9662] (first compound 0.004 µM, partner dose 2 µM)",76.7,190,85.2,136,241,93.4,156,111
"C[C@]12O[C@H](C[C@]1(O)CO)n1c3ccccc3c3c4c(c5c6ccccc6n2c5c31)CNC4=O [Lestaurtinib] + COc1ccc2c(c1)CCC1C2CCC2(C)C(NCCCCCCN3C(=O)C=CC3=O)CCC12 [U73122] (first compound 0.004 µM, partner dose 0.4 µM)",113,118,113,158,180,57.5,32.2,89.3
"O=C(O)[C@@H]1[O][Sb](=[O])([O][Sb]2(=[O])[O][C@H]([C@H](O)CO)[C@H](O)[C@H](C(=O)O)[O]2)[O][C@H]([C@H](O)CO)[C@@H]1O (some centres undefined) [stibogluconate] + C/C(O)=C(\C#N)C(=O)Nc1cc(Br)ccc1Br [LFM-A13] (first compound 2 µM, partner dose 2 µM)",155,24.2,138,85.3,125,233,66.7,182

# As entered above:
# CC(C)C[C@H](NC(=O)[C@H](Cc1ccccc1)NC(=O)c1cnccn1)B(O)O [Bortezomib] + O=C(Oc1ccc([N+](=O)[O-])cc1)N1CCC(C(O)(c2ccc3c(c2)OCO3)c2ccc3c(c2)OCO3)CC1 [JZL184] (first compound 0.001 µM, partner dose 1 µM) | cleaved PARP positive nuclei fraction (LOXIMVI) [%]: 214
# C[C@]12O[C@H](C[C@]1(O)CO)n1c3ccccc3c3c4c(c5c6ccccc6n2c5c31)CNC4=O [Lestaurtinib] + O=C(Nc1ccccc1)c1cc([N+](=O)[O-])ccc1Cl [GW9662] (first compound 0.004 µM, partner dose 2 µM) | cleaved PARP positive nuclei fraction (G361) [%]: 136
